The target in the test is putative dephospho-CoA kinase from Aquifex aeolicus, wild type (DPCK-WT) (Aquifex aeolicus) (UniProt O67792). Briefly: SEC.

No constants are given. Whether binding was seen depends on the method and setting.

B1: putative dephospho-CoA kinase from Aquifex aeolicus, wild type (DPCK-WT) (enzyme, UniProt O67792 1-196)
chain: MKRIGLTGNIGCGKSTVAQMFRELGAYVLDADKLIHSFYRKGHPVYEEVVKTFGKGILDEEGNIDRKKLADIVFKDEEKLRKLEEITHRALYKEIEKITKNLSEDTLFILEASLLVEKGTYKNYDKLIVVYAPYEVCKERAIKRGMSEEDFERRWKKQMPIEEKVKYADYVIDNSGSIEETYKQVKKVYEELTRDP
For the molecule B1, the binding result is on record as “no binding”.

The values are drawn from publication doi:10.1101/2020.11.11.377994.
